Earlier results, collected in publication PMC12621045, “Development of Purine and Pyrrolopyrimidine Scaffolds as Potent, Selective, and Brain Penetrant NUAK1 Inhibitors” (ACS Medicinal Chemistry Letters, 2025).

system: NUAK (1 or 2); parameters: method as in ChEMBL33; conditions: compared with NUAK1; ref ChEMBL33; cited from earlier work

SMILES	# targets with higher potency
COc1c(Nc2ncc(Cl)c(N[C@H]3[C@@H](C(N)=O)[C@@H]4C=C[C@H]3C4)n2)ccc2c1CC[C@@H](N1CCOCC1)CC2 [CHEMBL2064666]	4
O=C(NCC(F)(F)F)c1cc(-c2cnn3cc(-c4ccc(OCCN5CCCCC5)cc4)cnc23)cs1 [CHEMBL4569508]	4
COc1cc(N2CCC(N3CCN(C)CC3)CC2)ccc1Nc1ncc(Cl)c(Nc2ccccc2P(C)(C)=O)n1 [Brigatinib]	5
CCCCNc1ncc2c(-c3ccc(CN4CCN(C)CC4)cc3)cn([C@H]3CC[C@H](O)CC3)c2n1 [UNC2025]	6
CCN(CC)CCNC(=O)c1c(C)[nH]c(/C=C2\C(=O)Nc3ccc(F)cc32)c1C [Sunitinib]	53
C=CC(=O)Nc1cc(Nc2ncc(Cl)c(O[C@@H]3CO[C@H]4[C@@H]3OC[C@H]4OC)n2)ccc1N(C)CCN(C)C [CHEMBL5193702]	1
CC1(C)C(=O)N([C@H]2CCc3c(O)cccc32)c2nc(Nc3ccccc3)ncc21 [CHEMBL3884319]	1
Cn1cc(-c2cnc3c(-c4csc(C(=O)NCC(F)(F)F)c4)cnn3c2)cn1 [CHEMBL4550702]	3

same assay, conditions: compared with NUAK2; ref ChEMBL33; cited from earlier work

SMILES	# targets with higher potency
COc1cc(N2CCC(N3CCN(C)CC3)CC2)ccc1Nc1ncc(Cl)c(Nc2ccccc2S(=O)(=O)C(C)C)n1 [NVP-TAE684]	9
Nc1nc(Nc2ccc(S(N)(=O)=O)cc2)nn1C(=O)c1c(F)cccc1F [JNJ-7706621]	7
Cc1nc(N)sc1-c1ccnc(Nc2ccc(N3CCOCC3)cc2)n1 [CYC-116]	3
COC(=O)c1ccc2c(c1)NC(=O)/C2=C(\Nc1ccc(N(C)C(=O)CN2CCN(C)CC2)cc1)c1ccccc1 [Nintedanib]	34
CO[C@@H](C(=O)N1Cc2n[nH]c(NC(=O)c3ccc(N4CCN(C)CC4)cc3)c2C1)c1ccccc1 [Danusertib]	2
CCn1c(-c2nonc2N)nc2c(C#CC(C)(C)O)ncc(OC[C@H]3CCCNC3)c21 [GSK-690693]	19
